Measurements from publication PMC8453981.
Results are given in words; binding and its absence hold for the method and conditions named. Some binding calls cover weakened binding; strength is not graded here.

Protein sequences, listed by entry. Tags and fused reporters are not part of them.
UniProt A0A2W0FH34: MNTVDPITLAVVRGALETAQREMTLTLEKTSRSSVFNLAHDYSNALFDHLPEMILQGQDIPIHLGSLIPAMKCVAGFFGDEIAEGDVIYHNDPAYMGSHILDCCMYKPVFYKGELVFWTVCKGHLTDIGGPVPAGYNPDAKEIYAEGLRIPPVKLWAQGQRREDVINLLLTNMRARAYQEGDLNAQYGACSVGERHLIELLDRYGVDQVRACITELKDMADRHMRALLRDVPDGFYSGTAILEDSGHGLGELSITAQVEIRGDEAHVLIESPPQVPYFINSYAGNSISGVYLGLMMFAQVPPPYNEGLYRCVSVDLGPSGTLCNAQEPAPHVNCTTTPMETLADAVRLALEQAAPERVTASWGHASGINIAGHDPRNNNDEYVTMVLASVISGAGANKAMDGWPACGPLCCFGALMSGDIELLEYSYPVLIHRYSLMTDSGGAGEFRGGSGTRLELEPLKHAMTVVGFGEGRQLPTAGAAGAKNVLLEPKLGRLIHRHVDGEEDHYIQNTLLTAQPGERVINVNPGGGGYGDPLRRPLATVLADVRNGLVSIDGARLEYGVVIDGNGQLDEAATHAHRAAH

Tests used:
[1] = molecular target: Caprolactamase subunit α (CapA) from Pseudomonas jessenii GO3 (Pseudomonas jessenii GO3); assay: co-purification by His-tag affinity chromatography; CapA with C-terminal His tag and untagged CapB co-expressed in E. coli C41(DE3); cell-free extract incubated with Ni-NTA resin 1.5 h at 4°C in AB buffer (50 mM ammonium bicarbonate-NaOH pH 8.0, 10 mM MgCl2, 5% glycerol), washed with 20 mM imidazole, eluted with 300 mM imidazole; SDS-PAGE
[2] = molecular target: Caprolactamase subunit α (CapA) from Pseudomonas jessenii GO3 (Pseudomonas jessenii GO3); assay: crystal structure; co-purified CapAB, 5.1 mg/mL; crystal from 0.02 M Na/K phosphate, 0.1 M Bis-Tris propane pH 7.5, 20% PEG3350, 294 K; 4.0 Å, molecular replacement; two CapAB dimers in the asymmetric unit; both purified
[3] = molecular target: Caprolactamase subunit α (CapA) from Pseudomonas jessenii GO3 (Pseudomonas jessenii GO3); assay: dynamic light scattering; purified CapAB after gel filtration (20 mM Tris-HCl pH 7.5, 150 mM NaCl, 10 mM MgCl2, 2% glycerol), 20°C; both purified

binding [1]: binds
binding [2]: binds
binding [3]: binds
Substance: Caprolactamase subunit β (CapB) from Pseudomonas jessenii GO3 (from UniProt A0A2W0FH34 1-581)
